Assay [1] has as its target T1, Strep-tagged full-length VgrG2b (PA0262) (Pseudomonas aeruginosa) (UniProt Q9I6M7).
T1 sequence: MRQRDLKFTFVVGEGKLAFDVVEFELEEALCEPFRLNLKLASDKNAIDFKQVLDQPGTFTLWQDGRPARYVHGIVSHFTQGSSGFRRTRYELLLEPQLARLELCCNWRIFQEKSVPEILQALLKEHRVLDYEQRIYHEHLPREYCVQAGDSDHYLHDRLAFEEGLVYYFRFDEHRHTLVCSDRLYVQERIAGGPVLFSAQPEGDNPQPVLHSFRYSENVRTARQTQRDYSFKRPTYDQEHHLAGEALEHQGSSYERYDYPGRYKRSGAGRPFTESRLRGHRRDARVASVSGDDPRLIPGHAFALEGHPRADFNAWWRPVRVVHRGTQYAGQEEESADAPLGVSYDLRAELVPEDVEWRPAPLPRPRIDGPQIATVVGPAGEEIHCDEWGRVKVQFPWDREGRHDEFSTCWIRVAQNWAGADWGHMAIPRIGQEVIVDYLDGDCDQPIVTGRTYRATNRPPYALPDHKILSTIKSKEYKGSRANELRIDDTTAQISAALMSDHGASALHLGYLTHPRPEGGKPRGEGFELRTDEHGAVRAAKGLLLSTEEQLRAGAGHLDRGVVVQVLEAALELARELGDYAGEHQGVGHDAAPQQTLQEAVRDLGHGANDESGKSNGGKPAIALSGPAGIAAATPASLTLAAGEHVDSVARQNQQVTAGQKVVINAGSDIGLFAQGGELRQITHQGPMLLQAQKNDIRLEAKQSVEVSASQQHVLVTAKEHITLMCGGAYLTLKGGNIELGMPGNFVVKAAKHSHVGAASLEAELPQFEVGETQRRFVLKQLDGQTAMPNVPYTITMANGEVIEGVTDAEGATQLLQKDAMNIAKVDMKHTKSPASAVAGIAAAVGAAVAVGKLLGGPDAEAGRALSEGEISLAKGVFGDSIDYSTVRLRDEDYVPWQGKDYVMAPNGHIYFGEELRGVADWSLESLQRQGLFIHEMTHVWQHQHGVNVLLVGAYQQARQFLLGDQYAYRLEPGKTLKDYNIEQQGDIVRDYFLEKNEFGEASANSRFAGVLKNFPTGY
The assay can be described thus: pull-down.

Assay [2] has as its target cytoplasmic Strep-tagged Tla3 (PA0259), mature domain (Pseudomonas aeruginosa). As to the kind of experiment: pull-down.
In assay [3] the target is PA0259 (Tla3) second DUF2875 domain alone (BACTH) (Pseudomonas aeruginosa). The assay can be described thus: two-hybrid.
Assay [4] has as its target PA0259 (Tla3) first DUF2875 domain alone (BACTH) (Pseudomonas aeruginosa). The assay can be described thus: two-hybrid.

Results are given in words; binding and its absence hold for the method and conditions named. For some of these results: In cells and extracts the contact can be indirect. For some of these results: Binding calls can cover weak binding; strength is not graded here. Sequences can lack the tags named with a protein.

With “cytoplasmic 10His-tagged Tla3 (PA0259), mature domain (Pseudomonas aeruginosa)”, the binding result in assay [1] was “binds”.

B1: cytoplasmic His10-tagged Tle3 (PA0260) (protein, UniProt Q9I6M9 1-716)
chain: MNDRVRSRTIVSAQSITLPKGGDVHLVPPPPKPCVTIVVHGVNDLAGCYERIERGLCQGLNERLDMPPTLPGGQANPGYLTPAGYSLPADDEGKAENPDVVYYRRKFASGAGGAAVRSVVVPFYWGFREEEQYINKTAAHGEWLDRNGNRLDKSGTKEGGQFVNATTNLPDMWGQGFNGKLFGFISLDWFGGTMTHPLFSAAGRKYMVLAAMRLAMLIKIIRKRYPDDTINVVGHSQGTLLTLLAHAFLKDDGVAPADGVIMLNSPYGLFEPLNEKLQGWSSQQTREARLATLKGILEFICGRRHPVPALSSVALRNCQGYGAIGGPGWVGGQGCQTTIDGERLSFDERDNRGSVYLYFTPQDQTVGLANVQGIGWRGIAEQVKGLPGRTGLPQGFHQRIFTVRKRNGEKEKIGGHAPPHVYPLLLAGEKTWEDTGLGGKDRFGRANFDQGDSVLLTAPRLPLPTEARFDFDGAVTAPGENSASGVYQVRDTLDPIDAAIGVSNGGWKEKDSGHAVAQQVDAALAYRYGRDARSVERALNEGKELAQQTHVFSARELGTGMVLVTRAETPYEARLRLQTAEGHLEPLSFHSAIPNNPEHNRRVLAYDLAIGAGDSVDDVVFYQYLCRVADWRLDWKASDKGIFSQGDASVDLPDEEVRALYRAEESKNSQLIDATVAYRKSGEFPVVVGNRLPSLVGTQTILDRYHEQAVRFGGTI
With B1, the binding entry in assay [2] is reported as “binds”.

B2: Tle3 fused downstream of the T18 or T25 domain (BACTH) (protein, UniProt Q9I6M9 1-716)
chain: B1 chain
Take B2: the binding result in assay [3] and in assay [4] was “no binding” each time.
